Experimental data taken from US8765444 (BOARD OF TRUSTEES OF THE UNIVERSITY OF ILLINOIS, dated 2014).
Results are given in words; binding and its absence hold for the method and conditions named. Some binding calls cover weakened binding; strength is not graded here. Tags and fused reporters may be left off the sequences shown.

Biological target: T1, FLAG-TBK1 (Homo sapiens (Human)) (UniProt Q9UHD2)
T1 sequence: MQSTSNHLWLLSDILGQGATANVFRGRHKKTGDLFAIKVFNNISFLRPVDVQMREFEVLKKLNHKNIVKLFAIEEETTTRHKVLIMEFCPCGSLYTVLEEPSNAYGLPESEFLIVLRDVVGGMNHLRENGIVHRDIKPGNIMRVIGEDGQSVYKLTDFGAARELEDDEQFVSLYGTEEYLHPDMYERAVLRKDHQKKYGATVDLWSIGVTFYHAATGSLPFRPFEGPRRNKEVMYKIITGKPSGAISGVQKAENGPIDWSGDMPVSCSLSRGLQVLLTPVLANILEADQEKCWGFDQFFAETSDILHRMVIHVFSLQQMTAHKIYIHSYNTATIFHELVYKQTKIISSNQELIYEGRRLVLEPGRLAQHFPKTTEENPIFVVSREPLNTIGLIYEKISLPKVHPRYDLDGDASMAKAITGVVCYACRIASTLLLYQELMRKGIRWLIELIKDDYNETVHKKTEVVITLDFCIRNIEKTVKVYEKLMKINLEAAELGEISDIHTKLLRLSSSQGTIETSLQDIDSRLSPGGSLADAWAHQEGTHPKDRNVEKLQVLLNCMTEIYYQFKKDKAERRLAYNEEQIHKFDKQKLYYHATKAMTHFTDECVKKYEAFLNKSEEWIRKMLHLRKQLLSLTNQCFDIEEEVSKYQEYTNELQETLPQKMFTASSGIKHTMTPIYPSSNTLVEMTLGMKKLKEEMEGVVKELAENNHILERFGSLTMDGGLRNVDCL
Experiment: anti-FLAG immunoprecipitation of the FLAG-TBK1 complex from transfected 293T cells, blot

B1: IRF3 (protein, UniProt Q14653 1-427, looked up)
chain: MGTPKPRILPWLVSQLDLGQLEGVAWVNKSRTRFRIPWKHGLRQDAQQEDFGIFQAWAEATGAYVPGRDKPDLPTWKRNFRSALNRKEGLRLAEDRSKDPHDPHKIYEFVNSGVGDFSQPDTSPDTNGGGSTSDTQEDILDELLGNMVLAPLPDPGPPSLAVAPEPCPQPLRSPSLDNPTPFPNLGPSENPLKRLLVPGEEWEFEVTAFYRGRQVFQQTISCPEGLRLVGSEVGDRTLPGWPVTLPDPGMSLTDRGVMSYVRHVLSCLGGGLALWRAGQWLWAQRLGHCHTYWAVSEELLPNSGHGPDGEVPKDKEGGVFDLGPFIVDLITFTEGSGRSPRYALWFCVGESWPQDQPWTKRLVMVKVVPTCLRALVEMARVGGASSLENTVDLHISNSHPLSLTSDQYKAYLQDLVEGMDFQGPGES
For B1, the binding was “binds”.
